PubChem BioAssay AID1224826 – NIAID, 2016
This is one part, drawn at random, of about 17,000 reagents. Over the whole deposit, about 1,110 (6.6%) were called active. 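Active means lowered or raised reporter signal; replicate intensities are raw and not normalised per plate.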

- Assay: 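Regulators of Tlr4 signalling leading to Tnf-alpha expression in macrophages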 (primary screen)
- Cells: RAW264.7 G9 macrophages from mouse bearing reporters for p65 (GFP) and the Tnf promoter (mCherry)
- Reagent: siRNA pool against mouse genes, 100 nM
- Duration: 16 h of LPS stimulation, after 2 days of siRNA transfection
- Treatment: bacterial lipopolysaccharide (Salmonella minnesota R595), 10 ng/ml
- Read-out: 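Imaged Tnf reporter mCherry in nuclei, minus background, normalised per plate to the median and expressed as robust z-scores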
- Reading the numbers: Tnf reporter robust z-score: higher = stronger Tnf promoter reporter signal after LPS; Tnf reporter intensity: higher = stronger Tnf promoter reporter signal
- Hit rule: 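Called active when robust z-score is at most -1.3, matching the median of the Tlr4 knock-down control, or over 3; control wells and wells with under 50 cells never active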
- Meaning of the calls: active = Tnf reporter clearly lowered or raised; inactive = no clear change in Tnf reporter

gene,PubChem SID,Tnf reporter robust z-score,fewer than 50 cells in well,"Tnf reporter intensity, replicate 1","Tnf reporter intensity, replicate 2",call
Tmem63b (transmembrane protein 63b),SID315478374,-0.54,enough cells in well,164,175,inactive
Mpp4,SID315478546,-0.09,enough cells in well,172,130,inactive
Gpr132 (G protein-coupled receptor 132),SID315471636,-0.88,enough cells in well,150,209,inactive
Setd3 (SET domain containing 3),SID315471003,-1.03,enough cells in well,105,131,inactive
Vmn1r11 (vomeronasal 1 receptor 11),SID315476988,2.78,enough cells in well,210,189,inactive
Ube2i (ubiquitin-conjugating enzyme E2I),SID315469904,0.03,enough cells in well,241,220,inactive
Lypd11 (Ly6/PLAUR domain containing 11),SID315477633,0.04,enough cells in well,145,188,inactive
Siglecf (sialic acid binding Ig-like lectin F),SID315479064,0.2,enough cells in well,88.3,129,inactive
"Alppl2 (alkaline phosphatase, placental-like 2)",SID315465375,1.42,enough cells in well,257,241,inactive
Mmp24 (matrix metallopeptidase 24),SID315467948,1.57,enough cells in well,476,253,inactive
Tex264 (testis expressed gene 264 ER-phagy receptor),SID315469673,2.09,enough cells in well,170,185,inactive
Shc3 (src homology 2 domain-containing transforming protein C3),SID315469222,0.78,enough cells in well,370,256,inactive
Ly6g5b (lymphocyte antigen 6 family member G5B),SID315480746,-0.88,enough cells in well,138,99.4,inactive
Pacsin3 (protein kinase C and casein kinase substrate in neurons 3),SID315475708,-0.56,enough cells in well,180,159,inactive
Ddx39a (DEAD box helicase 39a),SID315473490,0.65,enough cells in well,218,206,inactive
Cfap69 (cilia and flagella associated protein 69),SID315477493,-1.43,enough cells in well,95.3,80.5,active
Pacc1 (proton activated chloride channel 1),SID315472735,,fewer than 50 cells per well; well left out of calls,122,47.2,inactive
Gzf1 (GDNF-inducible zinc finger protein 1),SID315475001,-0.19,enough cells in well,125,107,inactive
Lcp1 (lymphocyte cytosolic protein 1),SID315468595,0.01,enough cells in well,217,115,inactive
Or5g29 (olfactory receptor family 5 subfamily G member 29),SID315480110,0.66,enough cells in well,193,161,inactive
Dcaf11 (DDB1 and CUL4 associated factor 11),SID315470688,-1.03,enough cells in well,64.3,101,inactive
Nek5 (NIMA (never in mitosis gene a)-related expressed kinase 5),SID315481612,0.06,enough cells in well,225,139,inactive
"Amelx (amelogenin, X-linked)",SID315465404,1.13,enough cells in well,225,243,inactive
Spag17 (sperm associated antigen 17),SID315474953,,fewer than 50 cells per well; well left out of calls,274,79.5,inactive

Called active (from the list above):
gene,PubChem SID,Tnf reporter robust z-score,fewer than 50 cells in well,"Tnf reporter intensity, replicate 1","Tnf reporter intensity, replicate 2",call
Cfap69 (cilia and flagella associated protein 69),SID315477493,-1.43,enough cells in well,95.3,80.5,active
